Experiment: Reactivity with aminoalcohol, CD and fluorescence measurement
Conditions: for change in CD and fluorescence: mixture with aminopropanol; for reaction with aminopropanol: up to 10 eq of aminopropanol
Method: After Compound 1 (30 mg) was dissolved in 1 mL of CDCl3, 0.5 eq, 1 eq, 2 eq, 5 eq and 10 eq of aminoalcohol were sequentially added and stirred for 30 minutes each time. As a result, ^1H NMR spectra were obtained (FIG. 2A). The aminoalcohol used in the experiment is as follows: […]

| Structure (SMILES) | change in CD and fluorescence | reaction with aminopropanol |
| --- | --- | --- |
| OB(O)c1ccccc1CNc1cccc2ccccc12 [Comparative Compound 3] | no change occurred | No reaction occurred |
| O=C(c1ccccc1)c1ccccc1NCc1ccccc1 [Comparative Compound 1] | no change occurred | No reaction occurred |
| O=C(Nc1ccccc1)Nc1ccccc1CNc1ccccc1C(=O)c1ccccc1 [Comparative Compound 2] | no change occurred | No reaction occurred |
